The results in this text go back to PMC11239871.

Chains of the proteins cited; added tags and fusions are not shown.
UniProt Q9QZL0: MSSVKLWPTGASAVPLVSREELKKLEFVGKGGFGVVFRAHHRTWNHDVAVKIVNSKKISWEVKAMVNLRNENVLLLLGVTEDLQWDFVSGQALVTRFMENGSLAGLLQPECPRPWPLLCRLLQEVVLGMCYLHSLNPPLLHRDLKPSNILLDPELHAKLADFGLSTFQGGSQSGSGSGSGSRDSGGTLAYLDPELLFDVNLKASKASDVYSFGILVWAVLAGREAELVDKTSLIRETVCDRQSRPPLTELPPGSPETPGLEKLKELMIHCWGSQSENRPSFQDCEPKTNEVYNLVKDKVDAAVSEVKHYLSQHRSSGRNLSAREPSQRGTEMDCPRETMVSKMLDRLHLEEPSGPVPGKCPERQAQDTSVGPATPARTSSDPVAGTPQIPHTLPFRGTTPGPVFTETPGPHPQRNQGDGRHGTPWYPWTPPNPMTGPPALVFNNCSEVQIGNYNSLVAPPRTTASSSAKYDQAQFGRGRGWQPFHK

No constants are given. Whether binding was seen depends on the method and setting. In cells and extracts the contact can be indirect. Some binding calls cover weakened binding; strength is not graded here. Tags and fused reporters may be left off the sequences shown.

Assay in all cases: co-IP; anti-Flag (M2 Flag beads) immunoprecipitation from lysates of iMEFs stimulated with doxycycline for 12 h, no caspase inhibitor; ALB lysis buffer (30 mM Tris HCl pH 7.5, 40 mM NaCl, 2 mM EDTA, 2 mM KCl, 10% glycerin, 1% Triton X-100); overnight; immunoblot for RIPK3 and RIPK1
In general terms: In western blotting, separated proteins are transferred to a membrane and probed.

In experiment [1] the target is T1, Flag-tagged C-terminally truncated constitutively active mouse ZBP1 (ZBP1ca) (mouse) (UniProt Q9QY24).
T1 sequence: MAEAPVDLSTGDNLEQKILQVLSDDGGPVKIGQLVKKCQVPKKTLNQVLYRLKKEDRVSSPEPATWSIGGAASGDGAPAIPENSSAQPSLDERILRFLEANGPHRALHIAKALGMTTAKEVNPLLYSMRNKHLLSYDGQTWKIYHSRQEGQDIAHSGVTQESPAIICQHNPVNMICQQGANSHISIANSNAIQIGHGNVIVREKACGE

Experiment [2] concerns the target T2, Flag-tagged wild-type full-length mouse ZBP1 (mouse) (UniProt Q9QY24).
T2 sequence: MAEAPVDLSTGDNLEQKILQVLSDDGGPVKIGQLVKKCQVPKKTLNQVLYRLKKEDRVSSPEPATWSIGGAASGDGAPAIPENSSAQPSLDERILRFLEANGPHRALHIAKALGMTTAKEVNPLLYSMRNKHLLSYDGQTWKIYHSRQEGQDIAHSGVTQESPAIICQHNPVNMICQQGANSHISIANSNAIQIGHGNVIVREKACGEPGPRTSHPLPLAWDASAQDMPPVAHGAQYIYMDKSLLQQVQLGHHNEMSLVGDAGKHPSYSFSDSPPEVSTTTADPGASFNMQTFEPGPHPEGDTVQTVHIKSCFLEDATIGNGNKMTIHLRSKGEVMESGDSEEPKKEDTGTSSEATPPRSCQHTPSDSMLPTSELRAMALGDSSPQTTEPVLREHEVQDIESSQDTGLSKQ

Experiment [3] addresses T3, Flag-tagged wild-type full-length mouse ZBP1 (mouse), Q9QY24.
T3 chain: T2 sequence
The following applies: remark: other sources report otherwise.

Turning to RIPK3 (from UniProt Q9QZL0 1-486), the binding result in experiment [1] and in experiment [2] was “binds” each time.

B1: RIPK1, Q60855 1-656 (protein)
chain: MQPDMSLDNIKMASSDLLEKTDLDSGGFGKVSLCYHRSHGFVILKKVYTGPNRAEYNEVLLEEGKMMHRLRHSRVVKLLGIIIEEGNYSLVMEYMEKGNLMHVLKTQIDVPLSLKGRIIVEAIEGMCYLHDKGVIHKDLKPENILVDRDFHIKIADLGVASFKTWSKLTKEKDNKQKEVSSTTKKNNGGTLYYMAPEHLNDINAKPTEKSDVYSFGIVLWAIFAKKEPYENVICTEQFVICIKSGNRPNVEEILEYCPREIISLMERCWQAIPEDRPTFLGIEEEFRPFYLSHFEEYVEEDVASLKKEYPDQSPVLQRMFSLQHDCVPLPPSRSNSEQPGSLHSSQGLQMGPVEESWFSSSPEYPQDENDRSVQAKLQEEASYHAFGIFAEKQTKPQPRQNEAYNREEERKRRVSHDPFAQQRARENIKSAGARGHSDPSTTSRGIAVQQLSWPATQTVWNNGLYNQHGFGTTGTGVWYPPNLSQMYSTYKTPVPETNIPGSTPTMPYFSGPVADDLIKYTIFNSSGIQIGNHNYMDVGLNSQPPNNTCKEESTSRHQAIFDNTTSLTDEHLNPIRENLGRQWKNCARKLGFTESQIDEIDHDYERDGLKEKVYQMLQKWLMREGTKGATVGKLAQALHQCCRIDLLNHLIRASQS
For the molecule B1, the binding entry in experiment [3] is reported as “no binding”.
